Laboratory results from paper PMC9293632, “PKGIα is activated by metal-dependent oxidation in vitro but not in intact cells” (The Journal of Biological Chemistry, 2022).
Results are given in words; binding and its absence hold for the method and conditions named. In cells and extracts the contact can be indirect. Some binding calls cover weakened binding; strength is not graded here.

Molecular target: endogenous PKGIα of C2C12 cells (mouse (endogenous in C2C12)) (UniProt P0C605)
Experiment: cross-linking; disulfide cross-link at Cys43 in intact H9c2 or C2C12 cells treated with 100 μM H2O2 (1, 2, 4 h) or 500 μM H2O2 (1 h); lysis with 100 mM maleimide, nonreducing SDS-PAGE, Western blot for PKGI

binding: binds
B1: endogenous PKGIα of C2C12 cells (enzyme, UniProt P0C605 1-671)
chain: MSELEEDFAKILMLKEERIKELEKRLSEKEEEIQELKRKLHKCQSVLPVPSTHIGPRTTRAQGISAEPQTYRSFHDLRQAFRKFTKSERSKDLIKEAILDNDFMKNLELSQIQEIVDCMYPVEYGKDSCIIKEGDVGSLVYVMEDGKVEVTKEGVKLCTMGPGKVFGELAILYNCTRTATVKTLVNVKLWAIDRQCFQTIMMRTGLIKHTEYMEFLKSVPTFQSLPDEILSKLADVLEETHYENGEYIIRQGARGDTFFIISKGQVNVTREDSPSEDPVFLRTLGKGDWFGEKALQGEDVRTANVIAAEAVTCLVIDRDSFKHLIGGLDDVSNKAYEDAEAKAKYEAEAAFFANLKLSDFNIIDTLGVGGFGRVELVQLKSEESKTFAMKILKKRHIVDTRQQEHIRSEKQIMQGAHSDFIVRLYRTFKDSKYLYMLMEACLGGELWTILRDRGSFEDSTTRFYTACVVEAFAYLHSKGIIYRDLKPENLILDHRGYAKLVDFGFAKKIGFGKKTWTFCGTPEYVAPEIILNKGHDISADYWSLGILMYELLTGSPPFSGPDPMKTYNIILRGIDMIEFPKKIAKNAANLIKKLCRDNPSERLGNLKNGVKDIQKHKWFEGFNWEGLRKGTLTPPIIPSVASPTDTSNFDSFPEDSDEPPPDDNSGWDIDF
